# Experimental data published in the supplement of paper PMC12819154, “High-throughput peptide-centric local stability assay extends protein–ligand identification to membrane proteins, tissues and bacteria” (Nature Structural & Molecular Biology, 2025).
# Chains of the proteins cited; added tags and fusions are not shown. Lines headed by an entry give the natural chain unless they say otherwise; changes in a name come on top.
# UniProt Q96SZ5, whole entry: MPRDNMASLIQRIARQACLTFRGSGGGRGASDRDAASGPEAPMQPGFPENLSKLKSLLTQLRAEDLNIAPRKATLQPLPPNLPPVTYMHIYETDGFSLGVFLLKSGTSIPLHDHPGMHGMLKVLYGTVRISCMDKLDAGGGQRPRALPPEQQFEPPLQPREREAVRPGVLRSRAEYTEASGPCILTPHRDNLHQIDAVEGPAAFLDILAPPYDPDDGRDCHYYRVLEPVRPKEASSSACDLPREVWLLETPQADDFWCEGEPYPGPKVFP
# UniProt Q9BQ67, whole entry: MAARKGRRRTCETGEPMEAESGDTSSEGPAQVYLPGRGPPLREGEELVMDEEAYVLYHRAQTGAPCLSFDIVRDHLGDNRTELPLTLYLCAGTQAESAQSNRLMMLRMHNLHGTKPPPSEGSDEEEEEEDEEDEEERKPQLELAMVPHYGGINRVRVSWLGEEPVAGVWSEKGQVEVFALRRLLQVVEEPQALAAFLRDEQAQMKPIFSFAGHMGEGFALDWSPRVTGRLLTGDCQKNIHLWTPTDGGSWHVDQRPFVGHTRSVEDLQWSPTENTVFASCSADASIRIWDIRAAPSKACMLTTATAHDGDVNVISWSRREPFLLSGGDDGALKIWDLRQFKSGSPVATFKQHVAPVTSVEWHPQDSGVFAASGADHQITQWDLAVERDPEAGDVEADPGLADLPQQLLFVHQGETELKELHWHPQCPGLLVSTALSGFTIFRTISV
# UniProt Q9BTF0: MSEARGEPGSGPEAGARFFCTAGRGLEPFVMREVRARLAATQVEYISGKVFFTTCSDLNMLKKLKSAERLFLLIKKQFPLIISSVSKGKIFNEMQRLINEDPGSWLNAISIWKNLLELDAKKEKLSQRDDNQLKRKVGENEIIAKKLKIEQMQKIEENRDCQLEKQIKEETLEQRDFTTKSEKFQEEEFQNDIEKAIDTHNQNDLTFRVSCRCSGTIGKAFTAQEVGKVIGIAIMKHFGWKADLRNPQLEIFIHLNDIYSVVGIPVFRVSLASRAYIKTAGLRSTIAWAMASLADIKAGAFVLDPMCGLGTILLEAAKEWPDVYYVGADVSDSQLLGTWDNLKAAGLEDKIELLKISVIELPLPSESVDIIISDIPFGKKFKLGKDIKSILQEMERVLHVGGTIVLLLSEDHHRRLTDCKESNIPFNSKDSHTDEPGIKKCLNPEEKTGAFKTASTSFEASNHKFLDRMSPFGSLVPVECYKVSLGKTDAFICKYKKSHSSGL
# UniProt Q99865, whole entry: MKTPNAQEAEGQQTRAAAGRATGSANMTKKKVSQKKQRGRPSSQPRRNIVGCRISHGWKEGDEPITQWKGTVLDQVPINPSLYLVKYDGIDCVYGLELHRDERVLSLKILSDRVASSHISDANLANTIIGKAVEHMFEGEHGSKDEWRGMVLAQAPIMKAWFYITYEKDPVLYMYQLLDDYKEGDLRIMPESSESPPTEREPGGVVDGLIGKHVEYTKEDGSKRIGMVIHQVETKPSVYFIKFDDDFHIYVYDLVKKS
# UniProt Q9BSD7: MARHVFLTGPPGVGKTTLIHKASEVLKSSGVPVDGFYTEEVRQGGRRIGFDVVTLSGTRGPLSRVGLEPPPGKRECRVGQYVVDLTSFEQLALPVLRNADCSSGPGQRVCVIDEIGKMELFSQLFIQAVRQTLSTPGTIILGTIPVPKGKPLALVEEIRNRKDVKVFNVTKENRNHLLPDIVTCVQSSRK
# UniProt Q9BTE3: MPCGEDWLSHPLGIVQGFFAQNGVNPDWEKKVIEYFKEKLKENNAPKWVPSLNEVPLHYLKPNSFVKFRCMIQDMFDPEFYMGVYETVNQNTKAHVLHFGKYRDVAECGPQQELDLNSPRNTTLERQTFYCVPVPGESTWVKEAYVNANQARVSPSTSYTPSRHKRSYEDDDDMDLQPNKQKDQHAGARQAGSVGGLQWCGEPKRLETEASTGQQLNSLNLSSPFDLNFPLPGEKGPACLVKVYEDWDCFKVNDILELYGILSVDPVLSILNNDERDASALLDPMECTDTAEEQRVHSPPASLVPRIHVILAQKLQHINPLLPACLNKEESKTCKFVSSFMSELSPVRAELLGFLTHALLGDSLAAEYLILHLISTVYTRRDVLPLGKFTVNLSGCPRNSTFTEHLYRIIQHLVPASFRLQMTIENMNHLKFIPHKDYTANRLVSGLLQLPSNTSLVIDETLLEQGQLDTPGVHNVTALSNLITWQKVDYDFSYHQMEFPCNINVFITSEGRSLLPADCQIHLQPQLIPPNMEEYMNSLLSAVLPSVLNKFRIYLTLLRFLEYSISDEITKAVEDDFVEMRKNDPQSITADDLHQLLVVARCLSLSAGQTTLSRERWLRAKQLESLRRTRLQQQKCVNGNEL
# UniProt Q99598: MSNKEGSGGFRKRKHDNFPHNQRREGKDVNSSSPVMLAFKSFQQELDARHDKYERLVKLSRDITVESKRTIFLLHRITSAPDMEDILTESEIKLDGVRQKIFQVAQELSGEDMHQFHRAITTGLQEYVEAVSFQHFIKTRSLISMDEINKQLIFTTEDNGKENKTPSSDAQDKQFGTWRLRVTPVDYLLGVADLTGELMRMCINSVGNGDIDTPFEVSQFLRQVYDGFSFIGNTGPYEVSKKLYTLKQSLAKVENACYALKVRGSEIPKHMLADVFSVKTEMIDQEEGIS
# UniProt Q9BRL6: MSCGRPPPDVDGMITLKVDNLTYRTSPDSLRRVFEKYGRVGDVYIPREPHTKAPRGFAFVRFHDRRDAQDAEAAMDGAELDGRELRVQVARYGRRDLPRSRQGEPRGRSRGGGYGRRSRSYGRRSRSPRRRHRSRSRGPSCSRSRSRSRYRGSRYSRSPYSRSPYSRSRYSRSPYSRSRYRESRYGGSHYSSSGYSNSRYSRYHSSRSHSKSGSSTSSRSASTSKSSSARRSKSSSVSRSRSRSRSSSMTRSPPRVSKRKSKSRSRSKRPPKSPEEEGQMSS
# UniProt Q99549: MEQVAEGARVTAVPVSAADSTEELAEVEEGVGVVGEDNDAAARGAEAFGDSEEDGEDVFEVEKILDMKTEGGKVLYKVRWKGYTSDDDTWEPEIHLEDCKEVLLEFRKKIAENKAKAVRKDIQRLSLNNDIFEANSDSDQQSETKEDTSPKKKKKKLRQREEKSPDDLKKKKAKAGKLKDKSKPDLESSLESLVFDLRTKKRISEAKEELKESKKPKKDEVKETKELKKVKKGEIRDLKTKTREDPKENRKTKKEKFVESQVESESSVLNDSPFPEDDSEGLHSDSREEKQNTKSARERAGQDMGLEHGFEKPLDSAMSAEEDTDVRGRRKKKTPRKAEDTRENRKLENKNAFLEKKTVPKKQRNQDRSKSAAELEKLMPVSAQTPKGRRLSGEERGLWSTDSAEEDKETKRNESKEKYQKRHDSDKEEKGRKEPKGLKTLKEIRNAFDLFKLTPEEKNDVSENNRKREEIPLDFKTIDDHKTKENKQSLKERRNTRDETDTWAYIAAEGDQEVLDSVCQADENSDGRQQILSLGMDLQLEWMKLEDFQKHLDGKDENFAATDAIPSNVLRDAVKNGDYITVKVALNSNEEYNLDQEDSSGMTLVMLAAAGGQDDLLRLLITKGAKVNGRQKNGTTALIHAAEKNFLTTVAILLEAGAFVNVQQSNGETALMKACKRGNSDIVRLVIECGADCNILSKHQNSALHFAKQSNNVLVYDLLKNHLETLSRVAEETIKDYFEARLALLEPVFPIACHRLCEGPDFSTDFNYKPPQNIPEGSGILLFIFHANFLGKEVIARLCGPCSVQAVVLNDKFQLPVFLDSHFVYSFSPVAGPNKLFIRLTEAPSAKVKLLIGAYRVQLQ
# UniProt Q9BSJ5: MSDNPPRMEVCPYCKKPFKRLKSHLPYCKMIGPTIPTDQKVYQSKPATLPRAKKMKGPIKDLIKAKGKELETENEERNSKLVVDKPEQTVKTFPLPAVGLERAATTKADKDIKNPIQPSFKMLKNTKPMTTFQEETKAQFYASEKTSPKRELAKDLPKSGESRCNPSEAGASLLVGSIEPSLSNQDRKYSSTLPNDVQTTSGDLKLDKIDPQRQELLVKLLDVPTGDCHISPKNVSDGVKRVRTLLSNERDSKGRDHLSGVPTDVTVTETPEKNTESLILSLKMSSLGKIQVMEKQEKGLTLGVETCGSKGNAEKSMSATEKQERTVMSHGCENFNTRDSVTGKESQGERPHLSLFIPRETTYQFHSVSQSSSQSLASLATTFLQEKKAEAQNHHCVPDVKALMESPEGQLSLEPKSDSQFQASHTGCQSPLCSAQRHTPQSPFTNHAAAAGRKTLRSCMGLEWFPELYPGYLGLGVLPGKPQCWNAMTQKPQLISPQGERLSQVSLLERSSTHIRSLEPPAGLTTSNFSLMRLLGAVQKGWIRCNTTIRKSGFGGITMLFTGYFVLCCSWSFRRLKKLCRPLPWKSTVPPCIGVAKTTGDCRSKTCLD
# UniProt Q9BTL3: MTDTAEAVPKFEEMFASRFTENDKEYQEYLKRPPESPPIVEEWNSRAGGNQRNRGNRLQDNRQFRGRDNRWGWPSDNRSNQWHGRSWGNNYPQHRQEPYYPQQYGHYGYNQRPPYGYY
# The list shows a part of the results. Small differences around the control level are noise.
# Compound: Cc1nc(Nc2ncc(C(=O)Nc3c(C)cccc3Cl)s2)cc(N2CCN(CCO)CC2)n1 [dasatinib]
# Assay: log2 fold change of tryptic peptide abundance, ligand vs vehicle (limited proteolysis) (log2 ratio); higher = more trypsin-susceptible (destabilized)
# Conditions: ligand concentration: 5 uM; sample: K562 cleared lysate
row,Target,log2 fold change
1,"ADO (peptide sequence: QACLTFRGSGGGR, peptide start residue: 16) (UniProt Q96SZ5)",0.726
2,"GRWD1 (peptide sequence: SGSPVATFK, peptide start residue: 342) (UniProt Q9BQ67)",-0.0868
3,"THUMPD2 (peptide sequence: SILQEMER, peptide start residue: 389) (UniProt Q9BTF0)",-0.26
4,"UniProt Q99865 (peptide sequence: RNIVGCR, peptide start residue: 51)",0.432
5,"UniProt Q9BSD7 (peptide sequence: VGLEPPPGKRECR, peptide start residue: 65)",-0.497
6,"UniProt Q9BTE3 (peptide sequence: LQMTIENMNHLK, peptide start residue: 420)",-0.546
7,"TSNAX (peptide sequence: TPSSDAQDK, peptide start residue: 165) (UniProt Q99598)",0.0977
8,"SRSF8 (peptide sequence: VGDVYIPREPHTK, peptide start residue: 40) (UniProt Q9BRL6)",-0.144
9,"MPHOSPH8 (peptide sequence: GLWSTDSAEEDKETKR, peptide start residue: 397) (UniProt Q99549)",-0.523
10,"C17orf80 (peptide sequence: NPIQPSFK, peptide start residue: 114) (UniProt Q9BSJ5)",-0.48
11,"UniProt Q9BTL3 (peptide sequence: FEEMFASR, peptide start residue: 11)",-0.141

# Laid out differently: results already given.
row | Target | log2 fold change
4 | UniProt Q99865 (peptide sequence: RNIVGCR, peptide start residue: 51) | 0.432
5 | UniProt Q9BSD7 (peptide sequence: VGLEPPPGKRECR, peptide start residue: 65) | -0.497
